From patent US11266743B2, “Peptide compositions and methods of use thereof” (priority 2017, dated 2022)
Some of these results come from one statement about several compounds together.

Tested on: Hela cells stably transfected with mCherry and GFP1-10
Assay: Split GFP assay (GFP-11 delivery)
Format: cell-based
Details: 20 μM, range over the three constructs
Method: To test the ability of CPPs to deliver other cargoes, specifically a protease-sensitive peptide cargo, we modified the well-known split-GFP assay. CPPs were tested for the ability to deliver the polar 16-residue GFP-11 peptide across the membrane barrier. This peptide rescues the fluorescence of the cytosolic endogenous, non-fluorescent GFP1-10 protein. Here, we stably transfected Hela cells with a plasmid containing the full length mCherry and the non-fluorescent GFP1-10. Following incubation with CPP-GFP-11 constructs at multiple concentrations and temperatures for 30 minutes in serum free DMEM, cells were analyzed by flow cytometry for mCherry and GFP fluorescence (FIG. 17). Live cells expressing mCherry (˜50% of the total cells) were gated and their GFP fluorescence was analyzed. Unlike the luciferase splice correction assay where a single corrected mRNA transcript serves as template for many molecules of functional luciferase, the split GFP assay is stoichiometric; a single GFP-11 peptide can bind to a single GFP1-10 protein producing a finite fluorescent response.
Hela cells were transfected with p_mCherry-GFP1-10 (Addgene plasmid #78591) using LIPOFECTAMINE® 3000 (ThermoFisher). Single mCherry positive cells were sorted into 96-well plates using a BD™ FACSARIA™ cell sorter and colonies were maintained under G418 selection at […]. Stably transfected cells were plated in 12-well plates at 100,000 cells/well and grown overnight in complete DMEM. Cells were washed in PBS and incubated in 500 μl of CPP-GFP-11 solution at variable concentrations at 23° C. and 37° C. for 30 minutes. The CPP-GFP-11 solution was aspirated and 100 μl of 0.025% trypsin solution was added to each well. After detachment, cells were suspended in 500 μL of PBS+2% FBS and 20 mM HEPES. Cells were analyzed using a BD™ LSRII flow cytometer. Cells displaying a normal morphology were gated and first analyzed for mCherry fluorescence using the 543 nM laser. mCherry+ cells were used to generate a histogram of GFP fluorescence measured with the 488 nM laser.

| Substance | GFP fluorescence, fold better than Tat (22° C.) | GFP fluorescence, fold better than Tat (37° C.) |
| --- | --- | --- |
| CPP-3-GFP-11: CPP-3 linked to the 16-residue GFP-11 peptide (SEQ ID NO: 12) (RIKRRFRRLRPKWKKRDHMVLHEYVNAAGIT) | 5-29 fold | 6-26 fold |
| CPP-2-GFP-11: CPP-2 linked to the 16-residue GFP-11 peptide (SEQ ID NO: 12) (GRKKRWFRRRRMKWKKRDHMVLHEYVNAAGIT) | 5-29 fold | 6-26 fold |
| CPP-1-GFP-11: CPP-1 linked to the polar 16-residue GFP-11 peptide (SEQ ID NO: 12) (RKKRWFRRRRPKWKKRDHMVLHEYVNAAGIT) | 5-29 fold | 6-26 fold |
